For at least one entry, the source does not settle the construct or the ends of the probe. Where cells or extracts were used, other partners may take part. For part of these data: At least one verdict was read from the data and is not stated in words by the source.
How the values were obtained:
[1] = target: MATα2 (HepG2 nuclear extract, supershift) (human) (UniProt P31153); experiment: EMSA supershift; details: anti-MATα2 antibody (3 μg); LightShift Chemiluminescent EMSA Kit protocol (Thermo); pH and binding temperature not stated; protein in an extract
[2] = target: MATα2 (RKO nuclear extract, supershift) (human) (UniProt P31153); experiment: EMSA supershift; details: anti-MATα2 antibody (3 μg); LightShift Chemiluminescent EMSA Kit protocol (Thermo); pH and binding temperature not stated; protein in an extract

Sequences of proteins named here, by UniProt entry; tags and fusion partners are left off. A change or cut given only in a name is not applied to a line headed by its entry.
UniProt P31153: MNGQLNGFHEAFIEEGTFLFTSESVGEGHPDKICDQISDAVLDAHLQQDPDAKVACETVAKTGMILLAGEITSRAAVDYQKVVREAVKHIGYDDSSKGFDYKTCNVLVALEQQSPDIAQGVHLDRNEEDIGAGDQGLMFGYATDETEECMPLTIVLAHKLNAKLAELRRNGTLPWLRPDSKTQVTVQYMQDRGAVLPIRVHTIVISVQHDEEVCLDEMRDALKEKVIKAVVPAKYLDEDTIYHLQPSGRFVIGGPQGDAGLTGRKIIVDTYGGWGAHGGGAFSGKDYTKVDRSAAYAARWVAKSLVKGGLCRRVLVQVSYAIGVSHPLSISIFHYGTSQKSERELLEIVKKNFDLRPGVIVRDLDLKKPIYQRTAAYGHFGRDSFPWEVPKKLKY

Row | Sequence | binding result [1] | binding result [2]
1 | GGCAGCTTAATACATTCTTTTTAGCCG (double strand) [Bcl-2 P2 promoter probe 3 (site 3)] | binds | binds
2 | GGTTTAATGTAACTTTCAATGG (double strand) [Bcl-2 P2 promoter probe 2 (site 2)] | binds | binds
3 | TGCGGATTGACATTTCTGTGAA (double strand) [Bcl-2 P2 promoter probe 1 (site 1)] | binds | binds

— paper PMC4741959
